Assay results reported in patent US8809386B2, “Use of dynamin ring stabilizers” (Children's Medical Research Institute, priority 2009, dated 2014).
Some results were stated once for a whole list of compounds, not compound by compound. Some compounds share one range, which may span the group rather than tell each member.

Target: T1, full length dynamin I (Ovis aries, UniProt A0ACI6NZN1)
T1 sequence (A0ACI6NZN1 1-864): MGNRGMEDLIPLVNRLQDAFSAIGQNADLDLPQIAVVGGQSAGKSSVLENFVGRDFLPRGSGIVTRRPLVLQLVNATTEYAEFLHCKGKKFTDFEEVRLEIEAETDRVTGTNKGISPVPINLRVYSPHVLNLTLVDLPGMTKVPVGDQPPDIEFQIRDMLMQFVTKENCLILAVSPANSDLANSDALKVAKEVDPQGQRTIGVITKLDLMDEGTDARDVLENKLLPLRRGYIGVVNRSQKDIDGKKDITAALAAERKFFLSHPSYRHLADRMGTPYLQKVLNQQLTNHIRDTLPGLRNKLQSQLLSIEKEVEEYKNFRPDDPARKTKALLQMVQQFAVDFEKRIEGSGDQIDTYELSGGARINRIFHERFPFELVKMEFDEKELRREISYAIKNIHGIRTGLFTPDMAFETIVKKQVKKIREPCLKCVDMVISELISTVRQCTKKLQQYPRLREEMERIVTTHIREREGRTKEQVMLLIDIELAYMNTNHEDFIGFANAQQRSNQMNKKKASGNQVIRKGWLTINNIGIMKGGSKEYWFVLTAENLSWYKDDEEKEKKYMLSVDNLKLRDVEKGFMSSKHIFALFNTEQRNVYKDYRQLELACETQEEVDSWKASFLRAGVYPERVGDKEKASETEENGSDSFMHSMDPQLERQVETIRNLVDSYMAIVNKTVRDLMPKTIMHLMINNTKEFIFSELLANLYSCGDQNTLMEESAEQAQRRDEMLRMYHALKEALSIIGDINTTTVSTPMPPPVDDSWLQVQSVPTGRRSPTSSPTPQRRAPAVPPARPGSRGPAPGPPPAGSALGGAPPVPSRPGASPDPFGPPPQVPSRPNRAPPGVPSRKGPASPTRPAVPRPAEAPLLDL
Assay: Basal dynamin GTPase activity in the absence of PS liposomes or other template (ring stabilizer activity)
Type: biochemical, sheep
Settings: full length dynamin I 200 nM, FIG. 4, read-out: stimulation values (EC50) of basal dynamin GTPase activity
Description: The compounds were present at the indicated concentrations and the concentration causing half-maximal stimulation is shown as the EC50.
Dynamin I (50 nM) GTPase stimulation was performed in the absence of the detergent Tween-80 (and in the absence of any known activators such as PS liposomes, nanotubes or microtubules). […] The GTPase activity of dynamin I (dynI; 200 nM) was measured in the absence of lipid activators (and in the presence of standard Tween-80 at 0.06%).
A compound (whether a dynamin inhibitor or not) can be identified as a dynamin ring stabilizer by assaying for its capacity to promote accumulation of dynamin rings and/or to inhibit disassembly of dynamin rings. […] GTPase activity of dynamin or dynamin rings can be determined by any conventionally known method (e.g., see Quan and Robinson. 2005). Such conditions include: (a) the absence of a helix assembly template such as liposomes, microtubules or lipid nanotubes, and (b) higher concentrations of dynamin than normally required for detecting template stimulated activity, typically 50-500 nM dynamin instead of 1-20 nM. Thus, ring stabilizer activity can be identified by the ability to stimulate the GTPase activity of full length dynamin in the absence of other stimulatory factors (such as PS liposomes, microtubules or nanotubes). […]

Structure (SMILES): N=c1oc2cc(O)c(O)cc2cc1C(=O)NCCNC(=O)c1cc2cc(O)c(O)cc2oc1=N [Iminodyn 17]
- EC50: 1 to 20 µM
